Assay results reported in publication PMC7819943, “Rice protein-binding microarrays: a tool to detect cis-acting elements near promoter regions in rice”.
This is one part of the list.

Protein sequences, listed by entry. Tags and fused reporters are not part of them.
UniProt Q0JBA9, entry or part of it: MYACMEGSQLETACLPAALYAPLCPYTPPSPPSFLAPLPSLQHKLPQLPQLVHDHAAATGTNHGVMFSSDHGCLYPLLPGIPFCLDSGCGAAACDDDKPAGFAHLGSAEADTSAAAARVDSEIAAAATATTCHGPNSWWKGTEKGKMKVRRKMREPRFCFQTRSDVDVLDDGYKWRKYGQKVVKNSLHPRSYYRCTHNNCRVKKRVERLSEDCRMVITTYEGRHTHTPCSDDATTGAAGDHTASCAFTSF

Target: OsWRKY34 (Oryza sativa, UniProt Q0JBA9 1-250)
Experiment: protein-binding microarray (RPBM); PBS, 2% BSA, 51.3 ng/ul salmon testes DNA, 50 uM zinc acetate, 200 nM TF, 25 C, 1 h; high values mean tight binding
Details: protein: recombinant; tags: N-terminal polyhistidine and DsRed monomer fusion (pET32a); label: CyDye5-dUTP incorporated in the synthesized complementary strand; 3' TTTTT single-stranded linker to array surface; dsDNA, one strand shown
Outline: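 Using Ni–NTA, transcription factors fused N-terminally to polyhistidine and DsRed were purified after expression in E. coli BL21-CodonPlus. These were incubated at 200 nM with a blocked, double-stranded custom Agilent array for 1 h at 25 °C in a buffer containing 50 µM zinc acetate, and the array was washed. The binding signal is per-feature fluorescence intensity (arbitrary units) on an Axon 4000B scanner.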

Sequence | binding signal
CTCCGTCCCTCCGTACCAGTTTAAATGCAGCCGTGGATTCCGGAGTCACCTAGTGCAG | 8360 fluorescence intensity (a.u.)
ACTCCTGCCATTATCCATTCGCCCGTTCTCTCTCTCGCCTCGGAGTCACCTAGTGCAG | 13800 fluorescence intensity (a.u.)
CAAGGACGAATCCAGTATAGGGGCGGTGGGGTCTCGAACCCGGAGTCACCTAGTGCAG | 10400 fluorescence intensity (a.u.)
ACATGTGCTATTTGTATGTTTTTGTGCGGACTACAATCAGCGGAGTCACCTAGTGCAG | 8220 fluorescence intensity (a.u.)
TCTCTACTCGATACACAGCAGCAGCAGCAGCCGCCTAAACCGGAGTCACCTAGTGCAG | 8560 fluorescence intensity (a.u.)
TTATTGCTCCTGGTTTTTTTTATATTGGGTAGGACCCAATCGGAGTCACCTAGTGCAG | 8920 fluorescence intensity (a.u.)
GTGCCCCGGTTGCTCACATCACACCACGCTTGCTTCGCTTCGGAGTCACCTAGTGCAG | 8570 fluorescence intensity (a.u.)
TATAACTTTCATACTGTACTTGTCATTCTCGGCCTGGATTCGGAGTCACCTAGTGCAG | 12500 fluorescence intensity (a.u.)
CGTCGCCGCCTCCGCCTCGCTCCGATCCCCATTCCGCGGTCGGAGTCACCTAGTGCAG | 9810 fluorescence intensity (a.u.)
ATCTGATTGCCCTGTAGATTTTGCACCGACGACGTTTTTACGGAGTCACCTAGTGCAG | 8600 fluorescence intensity (a.u.)
AATTGACCCTTTCACTACCACATCATCAAAACCATCCATCCGGAGTCACCTAGTGCAG | 9020 fluorescence intensity (a.u.)
CTACCTTAGCACCTTGCCTCGCAGGTTTCACTGCCAGAACCGGAGTCACCTAGTGCAG | 9240 fluorescence intensity (a.u.)
ACCTCGTTCCTTGTGTCGTTATGCCGTCCCGTCTTCCACCCGGAGTCACCTAGTGCAG | 10200 fluorescence intensity (a.u.)
ATCTCACATTCTCACTGTACAGTGCCGAACAACGATGGCTCGGAGTCACCTAGTGCAG | 8570 fluorescence intensity (a.u.)
ACCATCTGTAATTATAAATTTATAATATGCTCATTTGACACGGAGTCACCTAGTGCAG | 8570 fluorescence intensity (a.u.)
GATTGATATGATCTTGCCCTGTTCTCAAGCCATAGCTATTCGGAGTCACCTAGTGCAG | 9050 fluorescence intensity (a.u.)
AACTTCCAACTTTTCCGTCTCATCATTTCAATTTCAATTACGGAGTCACCTAGTGCAG | 11200 fluorescence intensity (a.u.)
CACTCACTCACTCACTGACAGTATCGGTTGCCTAGCTATACGGAGTCACCTAGTGCAG | 11000 fluorescence intensity (a.u.)
ACAGCCTTAACAACTGAACTGAATATGTACGTGTGACTCCCGGAGTCACCTAGTGCAG | 9590 fluorescence intensity (a.u.)
GAGGATGAGGAGATTATTATGTTCTGGTTGCCTGCCCTATCGGAGTCACCTAGTGCAG | 8490 fluorescence intensity (a.u.)
ACCGCCTTTTCGCCTGTCTGTTTTATAACTCACCATTATACGGAGTCACCTAGTGCAG | 9080 fluorescence intensity (a.u.)
GACCCTTTTTATCCCGGTGCATCGTGTGCAGCAAACTTTTCGGAGTCACCTAGTGCAG | 8450 fluorescence intensity (a.u.)
AAACGAGCCTTTCATCTGCTTCGCCCGCTATCTCCCACAACGGAGTCACCTAGTGCAG | 10800 fluorescence intensity (a.u.)

Reprinted from the results shown for reference:
Sequence | binding signal
CTCCGTCCCTCCGTACCAGTTTAAATGCAGCCGTGGATTCCGGAGTCACCTAGTGCAG | 8360 fluorescence intensity (a.u.)
ACTCCTGCCATTATCCATTCGCCCGTTCTCTCTCTCGCCTCGGAGTCACCTAGTGCAG | 13800 fluorescence intensity (a.u.)
CAAGGACGAATCCAGTATAGGGGCGGTGGGGTCTCGAACCCGGAGTCACCTAGTGCAG | 10400 fluorescence intensity (a.u.)
ACATGTGCTATTTGTATGTTTTTGTGCGGACTACAATCAGCGGAGTCACCTAGTGCAG | 8220 fluorescence intensity (a.u.)
